# Results: PMC5192218
# Chains of the proteins cited; added tags and fusions are not shown.
# UniProt Q9QUI0: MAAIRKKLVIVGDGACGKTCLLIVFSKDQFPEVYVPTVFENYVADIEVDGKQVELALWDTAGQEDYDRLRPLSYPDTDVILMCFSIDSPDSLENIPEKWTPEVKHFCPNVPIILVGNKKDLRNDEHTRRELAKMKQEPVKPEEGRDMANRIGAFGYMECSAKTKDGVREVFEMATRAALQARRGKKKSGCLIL
# T1: p120-catenin (endogenous, mILC-1 cells) (mouse (endogenous in mILC-1)) (UniProt P30999)
# T1 sequence: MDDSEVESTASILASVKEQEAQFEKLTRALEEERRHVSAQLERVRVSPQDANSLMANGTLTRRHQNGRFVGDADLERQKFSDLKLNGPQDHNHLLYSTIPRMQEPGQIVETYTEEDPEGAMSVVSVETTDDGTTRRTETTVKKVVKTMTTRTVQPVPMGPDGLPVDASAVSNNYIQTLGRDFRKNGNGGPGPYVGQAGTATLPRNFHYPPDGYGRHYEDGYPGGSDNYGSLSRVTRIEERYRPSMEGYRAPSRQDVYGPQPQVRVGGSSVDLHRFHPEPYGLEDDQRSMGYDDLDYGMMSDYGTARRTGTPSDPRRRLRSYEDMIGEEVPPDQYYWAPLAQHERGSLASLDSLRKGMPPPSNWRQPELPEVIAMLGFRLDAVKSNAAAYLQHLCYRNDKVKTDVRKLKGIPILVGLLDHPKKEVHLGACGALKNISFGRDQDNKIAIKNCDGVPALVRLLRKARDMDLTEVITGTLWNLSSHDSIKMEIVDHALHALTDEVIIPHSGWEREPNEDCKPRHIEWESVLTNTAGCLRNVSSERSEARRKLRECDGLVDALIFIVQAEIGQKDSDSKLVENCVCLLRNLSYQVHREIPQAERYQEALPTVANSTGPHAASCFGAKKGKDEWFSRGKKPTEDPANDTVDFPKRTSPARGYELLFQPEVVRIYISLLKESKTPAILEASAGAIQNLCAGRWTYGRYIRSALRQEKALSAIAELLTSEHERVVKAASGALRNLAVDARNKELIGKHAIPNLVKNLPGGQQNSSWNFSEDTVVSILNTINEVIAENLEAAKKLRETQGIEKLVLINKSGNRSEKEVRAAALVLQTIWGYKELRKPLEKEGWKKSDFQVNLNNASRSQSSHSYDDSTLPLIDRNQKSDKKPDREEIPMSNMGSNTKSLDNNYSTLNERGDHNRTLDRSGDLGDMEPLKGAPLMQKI
# B1: ARHGAP11A (MP-GAP) (endogenous, mILC-1 cells) (protein, UniProt Q80Y19 1-987)
# chain: MWDQRLVRLALLQQLRAVYGIKVKGGRGQCDRRRHETAATEIKGKVFGVPFNSLPHSVVPEFGHIPSFLVDACASLKEHIHTEGLFRKSGSVVRLKALKSKLDQGEACLSSALPCDVAGLLKQFFRELPEPVLPADLHEALFKAQQLGAEERNKATLLLSCLMANPTVDILRYFFNFLKSVSLRASENKMDSSNLAVIFAPNLLQTSEGHEKMSANTEKKLRLQAAVVQTFIDCASDIGRVPDFILEKIPAMLGIDGLCTTPSLEGFEGDFETPGECKRKRRQSVGDFVNGALNKLKSSRTPSITPQQDRTAQASASPLILTPSVKRKLPGESSHAFSSKKRKSIKHNLNFELLPSHFFSSNSTPVSVHLDTSPDGSSQTSLSPIAMSGNHLVSTELRRSKRIASKKVYRVESGKAGCFSPKVSRKEKTRRSLRLKFSLGKNRDSDGCSVINRYENVGRRLANQQNLKSRIDSVKTGLLFSPDIDERLLKKGSEKISKSEEHLLTPDQLDGTGYRMSWTEPSNSSFQDMSANGTSPIMQNLEVKSFSLEPDITVEKSPVVSCELRPSTFHSQPDSSVLSLSGDEGNLASETLQKIQKAFSESGSDLHMVINHEQSSVTNTGEEVEFRDVTVTESKGHDGSCAGEEENCPSERNFSPDQSPEFAREADEECYSTQMKVECEGLHSETPKADPLILQAFPGEEPAEEPQSPRNQLSTPSRGNENGGESAGASGAPGEDESTCSVAVLSKPRPQRLSRQQSLVEKCDSVAPGALQVTEHGKVSDHIQWFNKLSLNEPNRGKVKSPLKFQRTPVRQSVRRINSLLEYGRQPVRQKLAIFGDAASPLVKSVSCDSALPSCVQNTSKGPTAPLITSGLEAQKSTSCNKSSVELTSKSFTKMKRHPDPLSASLGTPRLCKQENKSNGHIKFPLDDLTNHERLKFVVNNNVAFSPGMKNRVVRKPSEKERVWYKGSPKNPIGKTQLLPTSKPVDL
# B2: Anillin (endogenous, mILC-1 cells) (protein, UniProt Q8K298 1-1121)
# chain: MDPFTEKLLERTRARRENLQRKMAERPTAVARSAPHAKRGREPLSEASNQQQPLPGGEEKSCTKPSPSKKRCSDKIEVGAPDLENTEPIDVAKPCSPMPAPRQAKPPAPAAISESVAAPAALLSADRGLNSGSEASATSSVKTRMQRLAEQRRHWDSDLTDDVSESSYFAPVPTEDKAASPSKPPISNASATPVGRRGRLANLAATICSWEDDVSHSSAKQNSVQEQPGTACLSKSSSASGASASINSSSVQQEATCCSPRDGNASVRKDPSSNAAHGPLLSASVSSSVKASSPVTAATFITENREAQNPELLHKTASPLKTEARKPCEKPTLSQGAQPKEEANREVCLQSQSKDKLATPGGRGIKPFLERFGERCQEHSKESPSYRASHKTPNITPNTKAIQERLFKQNTCSSTTHLAQQLKQEREKELACLRGRLDKGNLWSAEKNEKSRSKHLETKQEVHCQNTPLKKHQTVASTPLTSVTDKVAENEPAVKLSSTEPAGSTESEMTKSSPLKITLFLEEEKSLKVASDLEVEQNTEAVREVEMSVDDEDINSSRVINDIFSDVLEEGELDVEKSQEEMDQVGAENSEEQEDALNISSMSLLAPLAQTVGVVSLENVISSPPSELRDSNLSAASPKPGKFQRTRVPRAESADSLGSEDRDLLYSIDAYRSQRFKETERPSIKQVIVRKEDVTSKLGEKKNVFSGQVNIKQKMQELNNDINLQQTVIYQASQALNCCVDEEHGKGSLEEAEAERLLLIATEKRALLIDELNKLKSEGPQRRNKTSVISQSEFAPSKGSVTLSEICLPLKADFVCSTAQKTDASNYYYLIMLKAGAEQMVATPLASTANSLSGDALTFPTTFTLHDVSNDFEINIEVYSLVQKKDSLGPDKKKKASKSKAITPKRLLTSITSKSSLHSSVMASPGGLGAVRTSNFTLVGSHTLSLSSVGDTKFALDKVPFLSPLEGHICLKISCQVNSAVEEKGFLTIFEDVSGFGAWHRRWCVLSGNCISYWTYPDDERRKNPIGRINLANCISHQIEPANREFCARRNTLELITVRPQREDDRETLVSQCRDTLCVTKNWLSADTKEERDLWMQKLNQVIVDIRLWQPDACYKPVGKP
# B3: mitotic kinesin-like protein 1 (endogenous, mILC-1 cells) (protein, UniProt E9Q5G3 1-953)
# chain: MKSAKAKTVRKPVIKKGSQTNLKDPVGVYCRVRPLSFPDQECCVEVINSTTLQLHTPEGYRLNRNGDYKETQYSFKRVFGTHTTQKELFDVVANPLVDDLIHGKNGLLFTYGVTGSGKTYTMTGSPGSGGLLPRCLNMIFNSIGSFQAKRYVFKSNDRNSMEIQCEVDALLERQKREALPIPKTPSSKRQADPEFADMINVQEFCKAEEVDEDSVYGVFVSYIEIYNNYIYDLLEEVQFDPIKPKLPQSKTLREDKNHNMYVAGCTEVEVKSTEEAFEVFWRGQKKRRIANTHLNRESSRSHSVFSIKLVQAPLDADGDNVLQEKEQITISQLSLVDLAGSERTNRTKAEGNRLREAGNINQSLMTLRTCMEVLRENQTYGTNKMVPYRDSKLTHLFKNYFDGEGKVRMIVCVNPKAEDYEESLQVMRFAEVTQEVEVARPVDKVICGLTPGRRYRNLPRGGPVGDEPLVPEVILQSFPPLPPCKLLDINDEETLPKLADTLEKRHHLRQLMTEDLNKKCLAFKALLKEFDNSLSNKENYVQEKLNEREKVISGQKLEIERLEKKNKTLEYKIEILEKTTTIYEEDKRNLQQELESQNQKLQRQFSDKRRLEARLQGMVTETSMKWQKECERRVAATQLEMQNKLWVKDEKLKQLKAIVTEPKPEKPERPSRERDREKIIPRSVSPSPLPLSSNNIAQISNGQQLMSQPQLHRRSNSCSSISVASCISEWEQKLSPFSTPVNVTSLARHRQQEPGQSKTCIVSDRRRGMCWTEGREMVPTFSSEIGVEEDHCRRNTPIPVRHRRSRSAGSRWVDHKPASNVQTETVMQPHVPHAITVSVANEKALAKCEKYMLTHQELASDGEIQTKVIKGDVYKTRGGGQSVQFTDIETLKQELPTGSRKRRSSTLAPAQPDGTESEWTDVETRCSVAVEMRAGSQLGPGYQHHAQPKRKKP
# Target: T1, p120-catenin (endogenous, mILC-1 cells) (mouse (endogenous in mILC-1))
# Test: affinity purification with mass spectrometry; p120 immunoprecipitation from mILC-1 lysates, gel bands analysed by LC-tandem MS, Mascot search of the IPI mouse database
row,binding,Molecule
1,binds,"RhoA (endogenous, mILC-1 cells) (from UniProt Q9QUI0 1-193)"
2,binds,B1
3,binds,B2
4,binds,B3

# No constants are given. Whether binding was seen depends on the method and setting. In cells and extracts the contact can be indirect. A yes stands for co-enrichment or nearness to the bait. Other partners may have been found.
